Results are given in words; binding and its absence hold for the method and conditions named. Some binding calls cover weakened binding; strength is not graded here.
Molecular target: T1, Rab escort protein 1 (rat REP1) (rat) (UniProt P37727)
T1 sequence: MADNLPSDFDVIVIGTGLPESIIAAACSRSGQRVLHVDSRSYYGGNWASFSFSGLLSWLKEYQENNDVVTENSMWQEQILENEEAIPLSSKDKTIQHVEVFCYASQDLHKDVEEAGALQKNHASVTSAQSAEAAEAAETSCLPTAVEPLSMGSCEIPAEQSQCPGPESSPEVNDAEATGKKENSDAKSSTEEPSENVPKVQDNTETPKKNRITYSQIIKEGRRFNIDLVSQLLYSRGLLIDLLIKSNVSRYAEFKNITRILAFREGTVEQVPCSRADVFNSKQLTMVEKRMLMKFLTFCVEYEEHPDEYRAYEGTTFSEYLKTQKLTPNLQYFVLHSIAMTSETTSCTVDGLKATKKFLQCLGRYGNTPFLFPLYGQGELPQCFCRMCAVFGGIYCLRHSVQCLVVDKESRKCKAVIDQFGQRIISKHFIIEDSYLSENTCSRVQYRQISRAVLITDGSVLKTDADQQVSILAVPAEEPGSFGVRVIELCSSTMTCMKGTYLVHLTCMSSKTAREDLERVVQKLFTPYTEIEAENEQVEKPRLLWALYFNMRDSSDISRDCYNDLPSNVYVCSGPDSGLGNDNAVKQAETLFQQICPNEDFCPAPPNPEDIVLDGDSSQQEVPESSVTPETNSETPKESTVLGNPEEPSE
Assay: co-purification of a complex reconstituted by in vitro prenylation; Citrine-Rab prenylated in vitro and purified as a complex with REP1 as described previously (ref. 36); prenylation checked by MALDI mass spectrometry; both purified

The chains behind the UniProt entries cited, without tags or fusion partners.
UniProt P18067: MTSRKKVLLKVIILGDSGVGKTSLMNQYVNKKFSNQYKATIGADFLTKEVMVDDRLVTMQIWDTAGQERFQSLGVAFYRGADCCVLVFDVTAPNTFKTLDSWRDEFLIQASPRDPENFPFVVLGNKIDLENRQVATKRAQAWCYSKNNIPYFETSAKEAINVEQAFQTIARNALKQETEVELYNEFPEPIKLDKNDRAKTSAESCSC

- binding: binds
Substance: prenylated Citrine-Rab7a (from UniProt P18067 1-207)
